We go through ten molecules from paper PMC11651612.

These are yes or no findings as the source states them, for the method shown. In cells and extracts the contact can be indirect. A yes stands for co-enrichment or nearness to the bait. Other partners may have been found. Where a sequence is shown, tags or fusion partners need not be part of it.

To fix the notation:
B1: Homoserine O-acetyltransferase (protein, UniProt J9VIY8 1-528)
chain: MSDNTPTPQKNPDTNPYASLISQQIAIIPSFTLESGVTLNNVPVAYKTWGKLNEKADNCLVICHALTGSADVEDWWGPLLGLNKAFDPTRFFIFCGNVIGSPYGTISSVTTNPETGKPFGPEMPGSSVKDDVRLHYIILKSLGVRSVAAVVGGSMGGMTVLEYPLNTPPGFVRAIIPLATSARHSAWCISWGEAQRQSIYSDPDYKDGYYYEIEEEGGKVDLARQPARGLAAARMAALLTYRSRDSFESRFGRRAGGGKSSVPKGGVRIMGGQETTDPSVPSESDLAAKSPSWRAWREHNDGHRSAGARPISRSGSEGPAHREGDAAQAEVVKTQDVKANGNKIGTGGEAPPKIFSAQSYLRYQGDKFTGRFDANCYIHITRKLDTHDLSAPSRDTSLSSLSSGLPSSPDATEEELNARLIHALSLEPPALVIGIESDGLFTTSEQRELAAGIPDAELVVIPSPDGHDGFLLEFEAINGWVEGWLKRKMPEFYERRVINPEEYVQGEEGFGIKKESVFGEAEADVTRW
B2: Methylenetetrahydrofolate reductase (protein, UniProt J9VMK3 1-633)
chain: MPHLTSLIAAHNGPFHNYEFFPPLTDPGFVNLLDRIRRLTSPPFQAPLAVSVTWGAGGSTAEKSLELAQQVVGMGVEVILHLTCTNMPKDKVDFALRRCKDLGISNILALRGDPPREEEYAINPTSTPDFFKHADDLVRYIRQTHGDYFCIGVAGYPNPHPDSESEEEDFKWFKAKCDAGADFIVTQLFYDVDVFLEWVKTCRAKGINQPIIPGIMPIQNYASFRRLVNLTKCPVPDSITSDLQPISSDDATVKRYGAELATKMVNQIIGSGLVPGVHFCTLNLEKSVRKILDNLGWSAASKASENEGVVKNKLIEDDSRAVNGIPINGKADTAQSPAKNLSISPSEANQLAQLGLTSTTLPPAPKTGLGAQGATGEDSWDEFPNGRFTDVRSPAYGEIDGWGSGLKITAAQALKEWGVPISTSDLSALFTAYLHSDPKHLTTPFCDLPLSPESHMILPHLLALNSAKVQHWTVGSQPAVDAARSEDEIVGWGPRGGYVFQKAFVEFFVTENEVNRLKEKVKKEGKGLITMYAANRKGDFKSNTDKDSVNAVTWGVFPGQEIAQSTIIEETSFLAWKEEAFDIWTEWSLLYPRNTPSRKLLEGIANEWWLVSLIHHDYKDQDALWRFLLEDLQ
B3: DNA-directed RNA polymerase II subunit RPB4 (protein, UniProt J9VQ08 1-147)
chain: MAALPAHHRRQQIQEEDATKLQFGDFAEGEALTLTEVATLLKAARQAPNVPPAPDNKVYQSTTDYVNEFSNTTMDVSDSMRTALSARHGFLNKFEIAQIMSLRPERVEVAVALIPSLERYAQGDENEAQLQSLLDDVRAMVRYGVQP
B4: Glucosamine-6-phosphate isomerase (protein, UniProt J9VVN4 1-286)
chain: MRLTVRDTKEQVGNYIGDYIANRINSFVPTPEHKNFVLGLPTGSSPLPVYKRLVELYNEKKVSFKDVVTFNMDEYVGIPRDHPESYHTFMFKNFFSLIDINPNNTHVLNGEAEDLYQECEDYEASIKAVGGIDLFLGGIGADGHIAFNEPGSSLTSRTRIKTLAYETILDNCRFFNNDLSLVPRMALTVGVQTVMDAREVVLVVTGQNKSLALSQMIEGAVNHMVTASALQTHPWALVVCDEDATLELRVKTVKYFKSIEKVQDEVEAKYGPVASVRLGLRGPTAA
B5: Sec1-like protein (protein, UniProt J9VP42 1-766)
chain: MAHLASLSISPAMTRPSLLHAQTHALLTLLNLNNPPPAAPATAAGPFPRPSSPGTPFDDGAQRPLVWKVLILDDASQDVLATTLRVQDLREQGVTLHMQLHSARPPLADVPAVYFVSPTLANIRRIAEDLSPPLYASYYLAFTSSLPRSLLEELASLILSNDPSGQTGQLIASVTDQFLDFVVPSPNMFSLLPRRELKQDPDGTAGKGKKGKDAKEEWVEGRASYVVLNDPRATEVDIEEEVGRIAKGLFSVVTTMNMTPIIRCPRGNAAEMVARRLDAKLRDHIASTSSRNARDAYSVDALQRPLLAIMDRNIDLIPMLSHSWTYQALVSDVLDMKLNRVTVSSPENGRLTKKSYDIDSKDFFWAKNAGNPFPAVAEDIDTDLSKYKTDAAEITRSTGISDVNDVSQIDFTSNTANLKTAITALPELTARKQILDTHMNIATALLQSIKERGLDNLFQIEETAGKQTKATILSVLNGATDEPGQTASPSPLDQLRLVIIYFLSTQDGALSKEDLKELESVLKEHGADTRALEYVKKVRDIHRMSTLAVQPAVAAQSQSGGGGEWTRGFSALGNRITDRLREGGIPTVGLDNLISGVKSFLPARKDLTLTRLVEALMDPASASSQALQDTDDYLFFDPKTSRARPGHAGAGGAGGAGAGGAGGGGAGGGAGGPGGGRSQFSEGVVFVVGGGGYVEYGNLMDWANRSGGGGGRDGGGGGGGGAGGVGAGGAGAQGVTGQGGRKVTYGSTEILNPEKFLKSLEELGSV
B6: Transcription initiation factor TFIIF subunit beta (protein, UniProt J9VJG5 1-340)
chain: MSSPSGPSTTSPFSFLQEEEEHLEVSDRKDASSVWALKVPNFLLQRWQTVQEPGVELGRLVVDNSVTPPNITLKLTNAEEGTEEAERAKRAKYDVEGLPDEFKVEVPMERSKNTFLFSEVKKVYDKGSRDGRQQADAPRDAWGKRKREKAHPKLLARVDHEGHIQPIRTQKYLDFLKARRMEAEQSRRPVVRMEDTGLSQAEQNQLASGFRSANSTFGSNMILASKQASGERFARLERHELTDRIFQCFRDHPYWALGALKQTLEQPDAWLREVLRDVAEQVKEGQYQGYWQLKPVWREDAWKGGENGESVKNGVKEEGDVKPDIDEDDDEDEDDLEEVM
B7: E2 ubiquitin-conjugating enzyme (protein, UniProt J9VQ05 1-220)
chain: MSDARLRRVQKEIKDCAKDKTSGIAIEMIDDNPFHLVGAFPGPPDTPYEGGYYEVDIQIPETYPFQPVKMKFITKVYHPNVSSASGAICLDILKDAWSPVLTLKSTLISLQSLLCEPIPSDPQDAQVAKHYLTDRNSFNDTAKHWAQAYAQAPAHKQQNARGEVATDAELAGLAEEHVVSFTDMGFSRDKVISVLRRRNYRGNNVNPATYNSCLEELLQG
B8: Scramblase-domain-containing protein (protein, UniProt J9VV27 1-487)
chain: MLHRSITASALRVGTSHPILARSIATAVPLLRQQERLPRGHVRPTRRPIRQTLLPETDERSGASQSTAAHPHAFHAYEPFDPLSTPIHASGPVDIPPDPSGVLGDSHAAREILGHESLVIVRQLEMLNVFMGFEQANRYAIHSPDGQLVGFLAEQEQGILSTISRQALRTHRPFRSVVMDRHGKPVLWIRRPFAFINSRIFVHSSEDHDSRLVGEAQQQWHPWRRRYNLFQSRESETFRQFAKVDSGFLAWDFWLKDKDDRLLASINRNFRGIGRELFTDTGQYVIRFDAAGTELDLAPGSNINVQGQTLVLPRSSDSGLTLDQRAMTLATAVSIDFDYFSRHSGSGGLGFPFFFWGGGDGSAEAQSGGRPSDVQPSPDGGAGAAAGAAAGAAGTGGMTEDELIYGRQPAQQPGNPNNDPVPPPPPGESAGGWEQFPEGLEGYDEQSAGWEQDEVMQDPWGNQGDDSGWFGGWGGGGGGGDWGDWGQ
B9: Hepatocellular carcinoma-associated antigen 59-domain-containing protein (protein, UniProt J9VGU4 1-304)
chain: MFKKRSRPTSVRDKSRIEEAEGSGNEEKVASGSGTPIVEEEEDDDTGRTVEELLMLKKLKKAQSRQGIDLEKLNRGEEKKRKGKKKEDAAEKYGLQPGRGMGRGDGEKEKDEEMEDEAERAKRLVRVNNFTQQTNALDVDKHMMAYIEAELAKRRGQAAATTDESALEDNDPQAELYRIAEKYQFETRKKKADDEGNVTNSLGMLTSIPEVDLGMDNRLKNIEMTEKAKRDMLEQRKQEAAAAAAAAKEAEDPGYAAARFYRPNQKSASDIYANYEKRQTTGAPRQESATDEQVYERFKKRMKR
B10: Histone deacetylation protein Rxt3 (T2BPP0) (protein, UniProt T2BPP0 1-1163)
chain: MHPYGKLPQPQGTSNATSPPLPTATPASGPPPNPLRPSYGLVTDRDRDRERQRNPYSYPSSLQRPDPPSSSSSSHSHQQRHQHHHHHHHHPSGASSAGSTPRDERTNPYAPPPPGASAGRKPDMLGVGLGAGLGRLSGGYGLFGNSPFREQEMRDRERQERIQRERERDLKPPVPTSPTQRASISTTPGNSYPRPSLPPSPTNTIRGGLPASNTVTSKPSISPQLPPASAGSASASAARPSLPLPNFSSLGSRSLPSPFERDTRERSASGSAHPSPAVPTTQEVPPAVGGHARSLSNSSAREIPGLSGNDRSPPKPSAPSTARSLYAGGPPPLSGSQGSRDREVQRSPVTRAPTAASPREPSRDNISPPVAASTAKPPSSQAPPASGSLSGAPTSGRGPYTSSYTYPSNPAYAGSFGGFGLSSFGGYGAFGGPRWDHEREREAREARDARERVEREGKRDEEDKRKKEIERQREKEREEREREKWKAVREQDQRERERRSSLSTPSAAPGSSVATARPPDPYRRNTGSFEGKPSSGYTRHIEVLNHPDPSAQPAAASQNATNPAYERETSVIQQVAPTREPRPYGYKPEPVARETPPVQPPIREPAVSQMPRESLSSTAGREPRPEREYYQTVPPSAPVIPPIPVNAPVQPPREKRSRMDAVVEDAQVAHQAQQAQRRSSQAKSKRRKLEEEKMTQAHHGMGHSHASYGNHNVHGRHSPVMDKRDFASLAQLPQKRVEVSSAPVEAWLKGLPSLSRVIGTIDYSGKPFTLVKTGLVKPENEGGLIIVRIGGGFLGRGWRVRGEPGWEDASTKQVGNVVCGAQDPERACWGTDVYTDDSDLGLILVHAGWIRWSALPSLRSPQDRKKDEQEFINVTVRLVPRLVRYIGTERNGLKTRGWGNGHDGSSVVVERVERVKIDRKYLASRKRKARISEWVHQRALVCPIPSSKQEDEKMKETILLTTTVPTESLILSAINVSGKDVTVTGAFKYSPDVLKGWLDVPIEGDELDKSLWGYKLILEGSGETYQISMNKESTYKYPLINLTQLLPSDTGPKEIFASHPASGIYLWDGGFAAQIQGEKGILFKVEKFKWEKLKEGEVGAWAKEVEEVVPAVEEIADDVPVEEEGESAPQGDHEMAVDIAEVNGANGINGHVHMKEEQMDVDG

The target of this experiment is T1, Cdc3-mCherry (C. neoformans) (UniProt J9VUF2).
T1 sequence: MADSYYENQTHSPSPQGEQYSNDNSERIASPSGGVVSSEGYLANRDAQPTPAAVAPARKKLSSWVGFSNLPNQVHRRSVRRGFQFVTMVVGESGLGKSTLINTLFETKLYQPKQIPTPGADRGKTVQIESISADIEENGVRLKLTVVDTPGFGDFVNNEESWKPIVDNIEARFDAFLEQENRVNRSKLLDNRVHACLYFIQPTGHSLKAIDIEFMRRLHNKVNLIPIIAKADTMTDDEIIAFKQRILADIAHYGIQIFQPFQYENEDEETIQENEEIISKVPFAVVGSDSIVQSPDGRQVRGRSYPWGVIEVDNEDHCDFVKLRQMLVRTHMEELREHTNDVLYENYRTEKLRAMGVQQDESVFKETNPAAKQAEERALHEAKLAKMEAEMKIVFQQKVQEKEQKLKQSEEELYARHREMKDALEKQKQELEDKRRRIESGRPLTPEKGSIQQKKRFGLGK
Put plainly: affinity purification with mass spectrometry; mCherry-tagged septin captured from C. neoformans lysate on RFP-Trap agarose, 4 h at 4°C, washed with TBS with 2 M urea pH 7.5; GeLC-MS/MS; untagged H99 as negative control; hits logFC >2 and adjusted p <0.001 (text-named hits <0.05); exponential cultures at ~25°C or shifted to 37°C for 2 h; N = 5.
In the case of B1, the binding result is listed as “binds”. Turning to B2, the binding entry is “binds”. For B3 the value was “binds”. Then B4, with “binds”; and B5, with “binds”. Consider B6, for which the binding entry is given as “binds”. For B7 the value was “binds”; for B8, “binds”; for B9, “binds”.

Consider B10, for which the binding entry is listed as “binds”.
